Measured values taken from the M2OR odorant receptor database.
Only a part is listed here, and it is no random draw. Calls are pooled over several reports, among them a noisy single-well screen.

What follows are compounds tested on T1, OR8U8. Settings: stereoisomer not certain.
T1 sequence (whole entry): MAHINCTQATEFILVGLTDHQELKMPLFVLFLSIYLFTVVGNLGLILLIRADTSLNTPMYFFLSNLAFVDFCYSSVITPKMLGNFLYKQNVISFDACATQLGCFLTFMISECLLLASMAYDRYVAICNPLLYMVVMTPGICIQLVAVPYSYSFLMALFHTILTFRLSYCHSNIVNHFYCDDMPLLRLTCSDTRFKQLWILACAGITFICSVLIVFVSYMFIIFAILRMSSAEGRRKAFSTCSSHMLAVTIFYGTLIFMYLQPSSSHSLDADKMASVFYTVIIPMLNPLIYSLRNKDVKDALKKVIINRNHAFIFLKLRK
Procedure, shortened: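 Each entry records the cell line, G-protein, co-transfected protein and tags used. Methods varied with the source, often transient luciferase assays in mammalian cell lines. A receptor–molecule pair is called responsive (active) if the original authors judged its signal statistically different from baseline and non-responsive (inactive) otherwise.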

Compound | odorant receptor agonist call
CC(C)C(=O)O | inactive
C=CCc1ccc(OC)c(OC)c1 | inactive
CC=Cc1ccc(O)c(OC)c1 | inactive
C=CCSCC=C | inactive
CC(C)CCC(=O)O | inactive
O=C1CCCCCCCCCCCCCCO1 | inactive
CCCCCCCC=CC=O | inactive
CC12C=CCC1C1CCC3=CC(=O)CCC3(C)C1CC2 (stereo not given) | inactive
CCCCCCCCCC=O | inactive
c1cnccn1 | inactive
CC(C)=CCCC(C)=CC=O | inactive
CCCCCOC(C)=O | inactive
CC12CCC(CC1)C(C)(C)O2 | inactive
COc1cc(C=O)ccc1O | inactive
CC(C)C=O | inactive
CCCCO | inactive
C=CC(C)(O)CCC=C(C)C (stereo not given) | inactive
CCCC(=O)O | inactive
CCCCCC(C)=O | inactive
CC(C)CC(=O)O | active
CC1=CCC(C(C)(C)O)CC1 (stereo not given) | inactive
CCC=CCCO | inactive
CC1CCC(C(C)C)C(O)C1 (stereo not given) | active
CCCCCCCOC(C)=O | inactive
COc1cc(C)ccc1O | inactive

Part of the list above, set out differently:
Compound	odorant receptor agonist call
CCCCCC(C)=O	inactive
CC1=CCC(C(C)(C)O)CC1 (stereo not given)	inactive
